The text below walks through data of patent publication US20250270165A1, “COMPOSITIONS FOR AND METHODS OF MODULATING RNA STABILITY” (Duke University, priority 2022, published 2025).

The subject of the series is MALAT1 triple helix. The series is described as follows: Isothermal titration calorimetry (ITC). The class given is binding, human. For orientation: Isothermal titration calorimetry measures the heat released or taken up as one component is titrated into another.

For `CN(C)CCCNC(=N)c1cccc(/N=N/Nc2cccc(C(=N)NCCCN(C)C)c2)c1` [DMZ-M1], the DG is -1.73 kcal/mol, the DH is -1.61 kcal/mol and the “−TDS” value is -0.115 kcal/mol.

For `CN1CCN(CCNC(=N)c2cccc(/N=N/Nc3cccc(C(=N)NCCN4CCN(C)CC4)c3)c2)CC1` [DMZ-M10], the DG is -1.47 kcal/mol, the DH is -0.318 kcal/mol and the “−TDS” value is -1.15 kcal/mol.

In the case of `N=C(N)c1ccc(/N=N/Nc2ccc(C(=N)N)cc2)cc1` [DMZ-P0, diminazene, reference compound], the DG is -1.46 kcal/mol, the DH was -1.87 kcal/mol and the “−TDS” value was determined as 0.409 kcal/mol.

Take `CN(C)CCCNC(=N)c1ccc(/N=N/Nc2ccc(C(=N)NCCCN(C)C)cc2)cc1` [DMZ-P1]: the DG was -1.46 kcal/mol, the DH was -1.62 kcal/mol and the “−TDS” value is -0.16 kcal/mol.

With `N=C(NCc1ccc(Cl)cc1)c1ccc(/N=N/Nc2ccc(C(=N)NCc3ccc(Cl)cc3)cc2)cc1` [DMZ-P5], the DG is -1.45 kcal/mol, the DH was -1.62 kcal/mol and the “−TDS” value was 0.167 kcal/mol.

Regarding `N=C(NC1CCN(Cc2ccccc2)CC1)c1ccc(/N=N/Nc2ccc(C(=N)NC3CCN(Cc4ccccc4)CC3)cc2)cc1` [DMZ-P8], the DG is -1.63 kcal/mol, the DH is -0.87 kcal/mol and the “−TDS” value was -0.762 kcal/mol.

For the molecule `N=C(NCCN1CCNCC1)c1ccc(/N=N/Nc2ccc(C(=N)NCCN3CCNCC3)cc2)cc1` [DMZ-P9], the DG was -1.5 kcal/mol, the DH was -0.366 kcal/mol and the “−TDS” value was -1.13 kcal/mol.

`N=C(NCCC1CCN(Cc2ccccc2)CC1)c1ccc(/N=N/Nc2ccc(C(=N)NCCC3CCN(Cc4ccccc4)CC3)cc2)cc1` [DMZ-P13]: the DG is -1.56 kcal/mol, the DH is -0.65 kcal/mol and the “−TDS” value is -0.908 kcal/mol.
